{"source": "paper PMC4968818", "binders": {"B1": {"name": "recombinant hexokinase 1 (HK-1) (enzyme, UniProt P19367 1-917)", "chain": "MIAAQLLAYYFTELKDDQVKKIDKYLYAMRLSDETLIDIMTRFRKEMKNGLSRDFNPTATVKMLPTFVRSIPDGSEKGDFIALDLGGSSFRILRVQVNHEKNQNVHMESEVYDTPENIVHGSGSQLFDHVAECLGDFMEKRKIKDKKLPVGFTFSFPCQQSKIDEAILITWTKRFKASGVEGADVVKLLNKAIKKRGDYDANIVAVVNDTVGTMMTCGYDDQHCEVGLIIGTGTNACYMEELRHIDLVEGDEGRMCINTEWGAFGDDGSLEDIRTEFDREIDRGSLNPGKQLFEKMVSGMYLGELVRLILVKMAKEGLLFEGRITPELLTRGKFNTSDVSAIEKNKEGLHNAKEILTRLGVEPSDDDCVSVQHVCTIVSFRSANLVAATLGAILNRLRDNKGTPRLRTTVGVDGSLYKTHPQYSRRFHKTLRRLVPDSDVRFLLSESGSGKGAAMVTAVAYRLAEQHRQIEETLAHFHLTKDMLLEVKKRMRAEMELGLRKQTHNNAVVKMLPSFVRRTPDGTENGDFLALDLGGTNFRVLLVKIRSGKKRTVEMHNKIYAIPIEIMQGTGEELFDHIVSCISDFLDYMGIKGPRMPLGFTFSFPCQQTSLDAGILITWTKGFKATDCVGHDVVTLLRDAIKRREEFDLDVVAVVNDTVGTMMTCAYEEPTCEVGLIVGTGSNACYMEEMKNVEMVEGDQGQMCINMEWGAFGDNGCLDDIRTHYDRLVDEYSLNAGKQRYEKMISGMYLGEIVRNILIDFTKKGFLFRGQISETLKTRGIFETKFLSQIESDRLALLQVRAILQQLGLNSTCDDSILVKTVCGVVSRRAAQLCGAGMAAVVDKIRENRGLDRLNVTVGVDGTLYKLHPHFSRIMHQTVKELSPKCNVSFLLSEDGSGKGAALITAVGVRLRTEASS"}, "B2": {"name": "recombinant hexokinase 2 (HK-2) (enzyme, UniProt P52789 1-917)", "chain": "MIASHLLAYFFTELNHDQVQKVDQYLYHMRLSDETLLEISKRFRKEMEKGLGATTHPTAAVKMLPTFVRSTPDGTEHGEFLALDLGGTNFRVLWVKVTDNGLQKVEMENQIYAIPEDIMRGSGTQLFDHIAECLANFMDKLQIKDKKLPLGFTFSFPCHQTKLDESFLVSWTKGFKSSGVEGRDVVALIRKAIQRRGDFDIDIVAVVNDTVGTMMTCGYDDHNCEIGLIVGTGSNACYMEEMRHIDMVEGDEGRMCINMEWGAFGDDGSLNDIRTEFDQEIDMGSLNPGKQLFEKMISGMYMGELVRLILVKMAKEELLFGGKLSPELLNTGRFETKDISDIEGEKDGIRKAREVLMRLGLDPTQEDCVATHRICQIVSTRSASLCAATLAAVLQRIKENKGEERLRSTIGVDGSVYKKHPHFAKRLHKTVRRLVPGCDVRFLRSEDGSGKGAAMVTAVAYRLADQHRARQKTLEHLQLSHDQLLEVKRRMKVEMERGLSKETHASAPVKMLPTYVCATPDGTEKGDFLALDLGGTNFRVLLVRVRNGKWGGVEMHNKIYAIPQEVMHGTGDELFDHIVQCIADFLEYMGMKGVSLPLGFTFSFPCQQNSLDESILLKWTKGFKASGCEGEDVVTLLKEAIHRREEFDLDVVAVVNDTVGTMMTCGFEDPHCEVGLIVGTGSNACYMEEMRNVELVEGEEGRMCVNMEWGAFGDNGCLDDFRTEFDVAVDELSLNPGKQRFEKMISGMYLGEIVRNILIDFTKRGLLFRGRISERLKTRGIFETKFLSQIESDCLALLQVRAILQHLGLESTCDDSIIVKEVCTVVARRAAQLCGAGMAAVVDRIRENRGLDALKVTVGVDGTLYKLHPHFAKVMHETVKDLAPKCDVSFLQSEDGSGKGAALITAVACRIREAGQR"}}, "biological_target": "voltage-dependent anion channel (VDAC) protein (human (endogenous in T47D))", "test": "co-IP; VDAC immunoprecipitated from cell lysate (anti-VDAC1/2/3, protein G agarose; lysate first blocked with 10 uM VDAC-binding membrane domain peptide), beads washed with PBS and incubated at RT for 50 min with recombinant HK at pH 6.2; western blots for HK-1, HK-2 and VDAC; both purified", "note": "No constants are given. Whether binding was seen depends on the method and setting. In cells and extracts the contact can be indirect. A result given as binding can be weak or reduced; the word gives no strength."}
{"binder": "B1", "values": [{"measurement": "binding", "value": "binds"}]}
{"binder": "B2", "values": [{"measurement": "binding", "value": "binds"}]}
